Results deposited as PubChem BioAssay AID1671195 (Yale University, 2021)
Purpose: 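Genes whose knockdown alters LDL uptake in liver cancer cells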 (primary screen). Cells: human Huh7 hepatoma cells. Reagents: siRNA pool against human genes, 18 nM. Duration: about 2 to 2.5 days of knockdown, then 8 h LDL uptake. Treatment: DiI-labelled LDL at 30 µg/ml for 8 h, in lipoprotein-deficient serum medium. Measured: 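Per-cell DiI-LDL intensity by automated imaging; well means scaled to the plate median and given as a robust z-score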. Scale: robust z-score: higher = more LDL uptake after knockdown. Active means: 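Active when two or more replicates show a robust z-score above 2 or below -2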.
Here is a random part of about 22,000 reagents. About 1,510 of them (6.9%) count as active. 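Active includes knockdowns raising or lowering LDL uptake; positive z-scores mean more uptake, negative mean less.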 Entries without a mark were called inactive. The numbers tell different reagents against one gene apart. No sequences are given here.

The first 2 records, ahead of the listing:
PPT2 → robust z-score, replicate 1: -1.8; robust z-score, replicate 2: -1.82; robust z-score, replicate 3: -1.74
ANPEP → robust z-score, replicate 1: -0.193; robust z-score, replicate 2: 0.659; robust z-score, replicate 3: 0.286

The listing, repeating the preview:
PPT2 → robust z-score, replicate 1: -1.8; robust z-score, replicate 2: -1.82; robust z-score, replicate 3: -1.74
ANPEP → robust z-score, replicate 1: -0.193; robust z-score, replicate 2: 0.659; robust z-score, replicate 3: 0.286
RRBP1 → robust z-score, replicate 1: 1.88; robust z-score, replicate 2: 0.286; robust z-score, replicate 3: 0.412
DZIP3 → robust z-score, replicate 1: 2.76; robust z-score, replicate 2: 0.181; robust z-score, replicate 3: -0.396
CRYGS → robust z-score, replicate 1: -0.277; robust z-score, replicate 2: 0.502; robust z-score, replicate 3: 0.569
RBM14 #1 → robust z-score, replicate 1: 2.01 (active); robust z-score, replicate 2: 1.86; robust z-score, replicate 3: 2.04
RBM14 #2 → robust z-score, replicate 1: -0.209; robust z-score, replicate 2: 0.307; robust z-score, replicate 3: 0.238
LOC441959 (retired record) → robust z-score, replicate 1: -0.708; robust z-score, replicate 2: -0.17; robust z-score, replicate 3: -0.236
NR1I2 → robust z-score, replicate 1: -1.36; robust z-score, replicate 2: -0.824; robust z-score, replicate 3: -1.47
ENTPD1 → robust z-score, replicate 1: -0.681; robust z-score, replicate 2: -0.721; robust z-score, replicate 3: -1.2
NDUFV1-DT → robust z-score, replicate 1: -0.97; robust z-score, replicate 2: -0.653; robust z-score, replicate 3: -0.545
RB1 → robust z-score, replicate 1: -0.421; robust z-score, replicate 2: 0.35; robust z-score, replicate 3: -0.653
